Structures are written as SMILES. The list shows a part of the results.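 Rule for the calls: active = mitochondrial OCR inhibition above 30% at 1 uM; inactive = 30% or less.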 Single values are uncertain, as repeats are few or missing.

In one assay the test system is Toxoplasma gondii RH tachyzoites. Briefly: inhibition of mitochondrial O2 consumption rate (% inhibition (relative to pre-injection OCR and atovaquone/antimycin A control)); higher = stronger ETC inhibition. The conditions noted are these: 1 µM; injection port (sequential injection order): A.
Regarding `COc1cc(C2=NCCN2)ccc1-c1cn(-c2cccc(C3=NCCN3)c2)nn1`, the “inhibition of mitochondrial O2 consumption rate” value (“inhibition” below) was inactive: -3.74.
Still for that read-out and setting: the figure for `COc1cccc2c(C)nc(N=C(N)N)nc12` is inactive: -3.95; for `COc1cccc(-n2nnnc2S(=O)(=O)Cc2ccccc2)c1` it is inactive: 4.65; for `O=C(NCc1ccoc1)N1CCN(Cc2ccc3c(c2)OCO3)CC1` it is inactive: 5.24.
Still for that read-out and setting: then `CC(C(=O)Nc1ccc2oc(-c3ccncc3)nc2c1)c1ccccc1` (configuration not stated), with inactive: 1.99.
Still for that read-out and setting: the figure for `O=C(NCCc1c[nH]c2ccccc12)c1cc2ccccc2oc1=O` is inactive: -1.69; for `COc1cc(OC)cc(C(=O)NCC2Cc3cc(Cl)cc(-c4ccncc4)c3O2)c1` (configuration not stated) it is inactive: -9.69; for `O=C(c1cc2ccccc2o1)N1CCN(Cc2ccc3c(c2)OCO3)CC1` it is inactive: -3.22.
As to `c1ccc(Oc2ccc(-c3cncc(-c4ccc5[nH]ccc5c4)n3)cc2)cc1`, the “inhibition” value was inactive: -2.68.
The same measure, in the same setting: the figure for `Cc1cc(C)cc(COc2ccc3c(C)c(CCC(=O)O)c(=O)oc3c2C)c1` is inactive: -5.32; for `CN(C(=O)c1cc2c(-c3cncnc3)cccc2[nH]1)c1ccccc1` it is inactive: -2.59.
Still for that read-out and setting: then `CCCS(=O)(=O)N1CCC(CO)(Cc2ccccc2C(F)(F)F)CC1`, with inactive: -12.4; and `O=C(Nc1nnc(-c2ccc(Cl)s2)o1)c1ccc(Cl)s1`, with inactive: -19.9.

Staying with this assay, now noted: 1 µM; injection port (sequential injection order): B.
Turning to `Cc1noc(C)c1C(=O)N1CCCC(c2[nH]c3c(C)cccc3c2-c2ccncc2)C1` (configuration not stated), the “inhibition” value was inactive: -2.31.
Consider `COc1cccc(-c2cc3c(Nc4cccnc4)nccc3[nH]2)c1`, for which the “inhibition” value is inactive: -15.8.
Still for that read-out and setting: the figure for `C[C@H]1COc2c(N3CCN(C)CC3)c(F)cc3c(=O)c(C(=O)O)cn1c23` is inactive: -3.79; for `O[C@@H](c1cc(C(F)(F)F)nc2c(C(F)(F)F)cccc12)[C@H]1CCCCN1` it is inactive: -1.24; for `Nc1ccc2ncnc(Nc3ccc(OCc4cccc(F)c4)c(Cl)c3)c2c1` it is inactive: -2.71.
On the same count and under the same terms, the figure for `CC[P](CC)(CC)=[Au][S][C@H]1O[C@@H](COC(C)=O)[C@H](OC(C)=O)[C@@H](OC(C)=O)[C@@H]1OC(C)=O` is active: 59; for `Cc1cccc(Cn2ccc(NC(=O)c3ccc4c(c3)OCO4)n2)c1` it is inactive: -2.61.
On the same count and under the same terms, the figure for `Cc1ccc2c(c1C)NC(=O)C21NN=C(c2ccccc2)S1` (configuration not stated) is inactive: -12.8.
As to `CC[C@H](CO)NCCN[C@H](CC)CO`, the “inhibition” value was inactive: -12.9.
Still for that read-out and setting: then `CC1CS(=O)(=O)CCN1/N=C/c1ccc([N+](=O)[O-])o1` (configuration not stated), with inactive: -8.04; and `CC(C)(C)n1nc(Cc2cccc3ccccc23)c2c(N)ncnc21`, with inactive: -12.9.
Same read-out and setting: the figure for `CO[C@H]1/C=C/O[C@@]2(C)Oc3c(C)c(O)c4c(O)c(/c(=C/NN5CCN(C)CC5)c(O)c4c3C2=O)=N\C(=O)/C(C)=C\C=C/[C@H](C)[C@H](O)[C@@H](C)[C@@H](O)[C@@H](C)[C@H](OC(C)=O)[C@@H]1C` is inactive: -3.21.
On the same count and under the same terms, the figure for `COC(=O)C1=C(C)NC(C)=C(C(=O)OC(C)C)C1c1cccc2nonc12` (configuration not stated) is inactive: 9.02; for `CCN(CC)C(=O)N1CCN(C)CC1` it is inactive: -5.34.

These data come from the supplement of paper PMC10403144.
